Experimental data published in patent US6127333A (priority 1998, dated 2000).

Experiment: general procedure: Boc solid-phase peptide synthesis; Boc-Val-PAM resin; DCC and HOBt
Conditions: whole synthesis, scale 3 x 0.5 mmol, acetate salt

Substance: N-Acetyl-Ser-Ser-Ser-Chg-Gln-Ser-Val-OH
- crude HPLC purity: 96%
